Library screen at single concentrations

Sequences of proteins named here, by UniProt entry; tags and fusion partners are left off. Residues count along the entry.
UniProt I6X8D2, whole entry: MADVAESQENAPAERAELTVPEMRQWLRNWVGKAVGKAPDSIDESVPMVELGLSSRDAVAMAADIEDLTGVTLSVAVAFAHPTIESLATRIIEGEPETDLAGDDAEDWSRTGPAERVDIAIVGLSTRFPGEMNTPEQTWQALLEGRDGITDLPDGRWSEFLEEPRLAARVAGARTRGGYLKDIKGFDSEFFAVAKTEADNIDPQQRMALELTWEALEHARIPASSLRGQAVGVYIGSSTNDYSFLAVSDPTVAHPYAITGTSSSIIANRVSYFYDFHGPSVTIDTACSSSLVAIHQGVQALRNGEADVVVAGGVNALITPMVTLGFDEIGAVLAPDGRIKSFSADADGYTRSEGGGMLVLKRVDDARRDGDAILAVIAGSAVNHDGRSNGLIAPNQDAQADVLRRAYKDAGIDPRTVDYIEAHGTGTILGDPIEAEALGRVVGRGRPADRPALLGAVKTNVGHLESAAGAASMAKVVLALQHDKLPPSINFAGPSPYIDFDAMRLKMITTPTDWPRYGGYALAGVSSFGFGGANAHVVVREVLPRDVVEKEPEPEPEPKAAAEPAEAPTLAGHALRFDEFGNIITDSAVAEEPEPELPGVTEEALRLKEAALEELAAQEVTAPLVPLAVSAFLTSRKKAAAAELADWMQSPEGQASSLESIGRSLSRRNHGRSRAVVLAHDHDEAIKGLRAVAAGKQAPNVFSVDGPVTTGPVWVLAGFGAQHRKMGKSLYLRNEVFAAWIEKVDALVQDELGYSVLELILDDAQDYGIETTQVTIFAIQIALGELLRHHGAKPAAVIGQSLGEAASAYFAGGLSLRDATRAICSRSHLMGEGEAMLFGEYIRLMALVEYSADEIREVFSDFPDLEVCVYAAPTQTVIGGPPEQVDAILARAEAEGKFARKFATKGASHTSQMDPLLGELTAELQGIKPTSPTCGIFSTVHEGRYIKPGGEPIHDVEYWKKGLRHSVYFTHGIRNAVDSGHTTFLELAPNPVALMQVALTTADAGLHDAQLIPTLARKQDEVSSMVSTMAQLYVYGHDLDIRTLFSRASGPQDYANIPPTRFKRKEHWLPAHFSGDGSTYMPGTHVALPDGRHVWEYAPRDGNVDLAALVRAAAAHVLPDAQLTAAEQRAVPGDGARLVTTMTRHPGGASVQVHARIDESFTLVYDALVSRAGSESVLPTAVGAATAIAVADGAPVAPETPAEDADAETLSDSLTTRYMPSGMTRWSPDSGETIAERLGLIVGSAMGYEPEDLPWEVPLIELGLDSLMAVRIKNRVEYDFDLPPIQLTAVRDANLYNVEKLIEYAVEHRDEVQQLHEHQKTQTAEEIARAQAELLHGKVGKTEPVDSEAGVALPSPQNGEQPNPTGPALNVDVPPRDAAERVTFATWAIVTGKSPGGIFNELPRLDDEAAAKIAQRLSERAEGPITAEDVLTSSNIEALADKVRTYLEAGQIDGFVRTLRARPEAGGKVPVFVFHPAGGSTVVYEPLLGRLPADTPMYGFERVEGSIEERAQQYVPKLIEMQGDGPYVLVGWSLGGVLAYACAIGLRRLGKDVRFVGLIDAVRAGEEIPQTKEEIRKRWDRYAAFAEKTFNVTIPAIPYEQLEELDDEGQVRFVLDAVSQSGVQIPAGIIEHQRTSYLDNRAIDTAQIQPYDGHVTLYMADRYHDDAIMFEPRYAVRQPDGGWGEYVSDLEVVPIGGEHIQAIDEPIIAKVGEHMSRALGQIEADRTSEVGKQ
UniProt A4I591, 1-473: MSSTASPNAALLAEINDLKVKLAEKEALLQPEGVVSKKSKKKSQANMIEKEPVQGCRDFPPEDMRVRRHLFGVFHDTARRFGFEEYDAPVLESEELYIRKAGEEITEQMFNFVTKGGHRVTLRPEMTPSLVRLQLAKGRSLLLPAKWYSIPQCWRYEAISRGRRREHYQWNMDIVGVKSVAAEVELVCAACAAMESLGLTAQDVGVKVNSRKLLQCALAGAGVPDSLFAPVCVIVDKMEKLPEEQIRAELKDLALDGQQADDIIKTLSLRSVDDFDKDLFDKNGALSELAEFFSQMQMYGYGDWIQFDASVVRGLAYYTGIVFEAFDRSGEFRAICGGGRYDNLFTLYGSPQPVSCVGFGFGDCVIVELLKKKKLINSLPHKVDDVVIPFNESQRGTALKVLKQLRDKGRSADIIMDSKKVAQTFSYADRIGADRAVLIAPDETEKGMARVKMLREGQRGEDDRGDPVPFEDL
UniProt P9WPC5, whole entry: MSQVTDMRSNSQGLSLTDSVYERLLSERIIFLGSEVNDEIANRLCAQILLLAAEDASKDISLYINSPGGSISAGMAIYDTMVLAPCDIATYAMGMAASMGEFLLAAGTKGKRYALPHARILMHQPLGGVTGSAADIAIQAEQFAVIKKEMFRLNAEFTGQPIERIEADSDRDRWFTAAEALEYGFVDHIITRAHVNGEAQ
UniProt P9WPC3, whole entry partner: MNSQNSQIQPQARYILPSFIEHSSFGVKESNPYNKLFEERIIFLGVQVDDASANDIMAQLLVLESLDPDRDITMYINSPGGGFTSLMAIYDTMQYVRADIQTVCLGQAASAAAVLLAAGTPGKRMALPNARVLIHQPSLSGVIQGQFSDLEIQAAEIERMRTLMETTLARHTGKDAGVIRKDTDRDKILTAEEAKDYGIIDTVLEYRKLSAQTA
UniProt P9WNZ1, whole entry: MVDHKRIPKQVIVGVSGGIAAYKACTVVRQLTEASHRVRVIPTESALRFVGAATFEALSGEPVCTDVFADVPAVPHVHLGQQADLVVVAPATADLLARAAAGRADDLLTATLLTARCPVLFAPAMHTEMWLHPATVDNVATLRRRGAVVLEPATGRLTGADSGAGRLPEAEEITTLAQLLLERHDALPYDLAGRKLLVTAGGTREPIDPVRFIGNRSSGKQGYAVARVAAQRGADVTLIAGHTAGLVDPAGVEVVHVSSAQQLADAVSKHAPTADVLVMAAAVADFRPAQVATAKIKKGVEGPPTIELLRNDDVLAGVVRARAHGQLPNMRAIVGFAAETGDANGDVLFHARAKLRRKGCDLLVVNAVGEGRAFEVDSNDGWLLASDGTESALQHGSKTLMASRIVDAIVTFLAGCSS

Pks13 thioesterase: 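Polyketide synthase Pks13, Mycobacterium tuberculosis (UniProt I6X8D2). Enzyme assay of the thioesterase domain of polyketide synthase 13; the read-out is not stated. Compounds at 30 µM. Higher reads as stronger inhibition (inferred from which compounds were picked for retests). Size under these conditions: about 67,000 compounds, about 300 of them at 50% or above in at least one test.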
LiHisRS: 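Histidine-tRNA ligase, Leishmania infantum (UniProt A4I591). Enzyme assay of histidyl-tRNA synthetase; the read-out is not stated. Compounds at 30 µM. Direction is inferred from retests: higher values go with stronger inhibition. The assay is labelled LdHisRS but filed under L. infantum. Of about 69,000 compounds tested this way, about 410 (0.6%) reached 50% or more in at least one test.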
Leishmania in macrophages: 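Cell assay of Leishmania donovani living inside macrophages; the read-out is not stated. Concentration: 30 µM. Higher reads as stronger inhibition (inferred: compounds with an IC50 in retests scored well above the rest). Of about 69,000 compounds tested this way, about 1,000 (1.5%) reached 50% or more in at least one test.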
ClpP1P2: 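Protease assay of ClpP1P2, read by the AMC dye that it sets free. Target: ClpP1P2, Mycobacterium tuberculosis (UniProt P9WPC5 and UniProt P9WPC3). Tested at 50 µM. Higher reads as stronger inhibition, judged from the few compounds that gave an IC50. Most other retested compounds had strongly negative values. Of about 69,000 compounds tested this way, about 10 (0.015%) reached 50% or more in at least one test.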
Toxoplasma: 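Assay of Toxoplasma gondii numbers, read through their beta-galactosidase reporter with a colour substrate. Compounds at 10 µM. The record gives no direction; the compounds picked for IC50 retests had high values, so higher reads as fewer parasites. Size under these conditions: about 67,000 compounds, about 260 of them at 50% or above in at least one test.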
CoaBC: 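Enzyme assay of CoaBC with a phosphate dye (Biomol Green) read at 650 nm. Target: Coenzyme A biosynthesis protein CoaBC, Mycobacterium tuberculosis (UniProt P9WNZ1). Concentration: 30 µM. Higher reads as stronger inhibition, judged from the few compounds that gave an IC50. Most strong results did not repeat in a second test. About 67,000 compounds were tested under these conditions; 0.06% (about 40) showed 50% or more at least once.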

Each number is a percent effect as filed.
The record does not define 0% and 100%; most values in the screen are far below 50% and negative numbers occur (in some assays of this library far below -100).
The compounds are a random part of those screened.

* COc1ccc(C2(NCc3noc(C4CC4)n3)CCOCC2)cc1 | Pks13 thioesterase: -19.69%; LiHisRS: -2.74%; Leishmania in macrophages: 6.618%; ClpP1P2: 2.988%; Toxoplasma: -4.921%; CoaBC: 9.96%
* Cc1nccn1CC1CCCN1S(=O)(=O)Cc1cccc(C#N)c1 (stereo not given) | LiHisRS: 10.71%; Leishmania in macrophages: 10.09%; ClpP1P2: -11.96%; Toxoplasma: -41.82%; CoaBC: -4.091%
* Cc1cccc2[nH]c(COCC(=O)N3CCCn4cncc4C3)nc12 | Pks13 thioesterase: -19.16%; LiHisRS: 0%; Leishmania in macrophages: -24.68%; ClpP1P2: -22.59%; Toxoplasma: -2.186%; CoaBC: 1.948%
* O=C(O)C(F)(F)F.O=C(O)C(F)(F)F.[H][C@]12CCN(c3ncc(F)cn3)[C@@]1([H])CC[C@@H](COCc1ccccn1)O2 | Leishmania in macrophages: 15.91%; Toxoplasma: -2.436%
* COCC1CN(S(=O)(=O)N(C)C)Cc2ncn(CC3CC3)c21 (stereo not given) | Pks13 thioesterase: -18.43%; LiHisRS: 16.67%; ClpP1P2: -8.414%; CoaBC: -9.877%
* Cc1cc(CN2CCN(C(=O)NC(C)c3cccs3)CC2)on1 (stereo not given) | Pks13 thioesterase: -11.95%; LiHisRS: 10.71%; Leishmania in macrophages: 15.04%; ClpP1P2: -11.48%; Toxoplasma: 19.18%; CoaBC: 7.224%
* CC(OCC1CC1)C(=O)N1CCCN(Cc2cnn(C)c2)CC1 (stereo not given) | Pks13 thioesterase: -10.74%; LiHisRS: 21.62%; Leishmania in macrophages: -8.63%; ClpP1P2: 14.51%; Toxoplasma: 3.543%; CoaBC: 5.744%
* CC(=O)N1CCCC1c1cccc(Cc2ccccc2F)n1 (stereo not given) | Pks13 thioesterase: -41.94%; LiHisRS: 0%; Leishmania in macrophages: -22.21%; ClpP1P2: -7.917%; Toxoplasma: 16.46%; CoaBC: -0.8333%
* Cc1cc(NC(=O)NCc2ccccn2)n(C)n1 | Pks13 thioesterase: -4.664%; LiHisRS: 16.22%; Leishmania in macrophages: 4.909%; ClpP1P2: 8.057%; Toxoplasma: 4.893%; CoaBC: 2.35%
* Fc1cnc(N2CC3(CCN(CC4CC4)C3)C2)nc1.O=C(O)C(F)(F)F | Leishmania in macrophages: -3.463%; Toxoplasma: -3.586%
* Cc1cn[nH]c1C1COCCN1C(=O)c1ccc2c(c1)CCCC2 (stereo not given) | Pks13 thioesterase: -13.44%; LiHisRS: 4.027%; Leishmania in macrophages: -1.23%; ClpP1P2: -24.64%; Toxoplasma: -3.75%; CoaBC: 4.338%
* CCN(C)S(=O)(=O)N1CCC(C(O)c2ccc(Cl)cc2)CC1 (stereo not given) | Pks13 thioesterase: -17.61%; LiHisRS: 12.4%; Leishmania in macrophages: 14.4%; ClpP1P2: -22.78%; Toxoplasma: 2.17%; CoaBC: 1.351%
* CN1Cc2c(C(=O)NC3CCCCC3)ncn2-c2ccccc2S1(=O)=O.O=C(O)C(F)(F)F | Leishmania in macrophages: 36.94%; Toxoplasma: -3.545%
* CNS(=O)(=O)CC(=O)NC(C)Cc1cccc(Cl)c1 (stereo not given) | Pks13 thioesterase: 6.832%; LiHisRS: 1.695%; Leishmania in macrophages: 27.82%; ClpP1P2: -14.31%; Toxoplasma: 3.81%; CoaBC: 1.631%
* NC(=O)c1noc(Cn2ncc3ccccc3c2=O)n1 | Pks13 thioesterase: -6.736%; LiHisRS: 23.94%; Leishmania in macrophages: -29.48%; ClpP1P2: 4.133%; Toxoplasma: -1.726%
* Cc1noc(C)c1CN1CCC2(CC1)CC(Oc1cccnc1)CO2.O=C(O)C(F)(F)F (stereo not given) | Leishmania in macrophages: 17.06%; Toxoplasma: 5.879%
* CC(C)CS(=O)(=O)N1C[C@H]2C[C@H](C(=O)N3CCCC3)[C@@H](C1)O2 | Pks13 thioesterase: 0.964%; LiHisRS: 1.887%; ClpP1P2: -11.23%; CoaBC: 1.22%
* COc1ccc(CNCCc2ccn(-c3ccccc3)n2)cc1O | Pks13 thioesterase: -15.65%; LiHisRS: 15.18%; Leishmania in macrophages: 14.96%; ClpP1P2: -2.515%; Toxoplasma: 0.05359%; CoaBC: -17.06%
* CN(CC(N)=O)Cc1ccc(F)cc1Cl | Pks13 thioesterase: -18.89%; LiHisRS: 12.12%; Leishmania in macrophages: 10.79%; ClpP1P2: -4.74%; Toxoplasma: 11.82%; CoaBC: 2.959%
* O=C1CC2(CCCC2)CC(=O)N1Cc1ncccn1 | Pks13 thioesterase: -8.421%; LiHisRS: 16.81%; Leishmania in macrophages: 6.207%; ClpP1P2: 1.494%; Toxoplasma: -3.278%; CoaBC: 2.335%

Repeated from the top, 2 entries:

* COc1ccc(C2(NCc3noc(C4CC4)n3)CCOCC2)cc1 | Pks13 thioesterase: -19.69%; LiHisRS: -2.74%; Leishmania in macrophages: 6.618%; ClpP1P2: 2.988%; Toxoplasma: -4.921%; CoaBC: 9.96%
* Cc1nccn1CC1CCCN1S(=O)(=O)Cc1cccc(C#N)c1 (stereo not given) | LiHisRS: 10.71%; Leishmania in macrophages: 10.09%; ClpP1P2: -11.96%; Toxoplasma: -41.82%; CoaBC: -4.091%

Source: ChEMBL document CHEMBL3988442, “University of Dundee, Small-Polar-MMV Screening Library” (2021).